Test results taken from patent US20170066780A1, “INHIBITORS OF EZH2” (Eli Lilly and Company, priority 2015, published 2017).
Some results were stated once for a whole list of compounds, not compound by compound. For at least one compound, name, drawing or mass did not settle the structure.

Sequences of proteins named here, by UniProt entry; tags and fusion partners are left off.
UniProt Q15910, whole entry: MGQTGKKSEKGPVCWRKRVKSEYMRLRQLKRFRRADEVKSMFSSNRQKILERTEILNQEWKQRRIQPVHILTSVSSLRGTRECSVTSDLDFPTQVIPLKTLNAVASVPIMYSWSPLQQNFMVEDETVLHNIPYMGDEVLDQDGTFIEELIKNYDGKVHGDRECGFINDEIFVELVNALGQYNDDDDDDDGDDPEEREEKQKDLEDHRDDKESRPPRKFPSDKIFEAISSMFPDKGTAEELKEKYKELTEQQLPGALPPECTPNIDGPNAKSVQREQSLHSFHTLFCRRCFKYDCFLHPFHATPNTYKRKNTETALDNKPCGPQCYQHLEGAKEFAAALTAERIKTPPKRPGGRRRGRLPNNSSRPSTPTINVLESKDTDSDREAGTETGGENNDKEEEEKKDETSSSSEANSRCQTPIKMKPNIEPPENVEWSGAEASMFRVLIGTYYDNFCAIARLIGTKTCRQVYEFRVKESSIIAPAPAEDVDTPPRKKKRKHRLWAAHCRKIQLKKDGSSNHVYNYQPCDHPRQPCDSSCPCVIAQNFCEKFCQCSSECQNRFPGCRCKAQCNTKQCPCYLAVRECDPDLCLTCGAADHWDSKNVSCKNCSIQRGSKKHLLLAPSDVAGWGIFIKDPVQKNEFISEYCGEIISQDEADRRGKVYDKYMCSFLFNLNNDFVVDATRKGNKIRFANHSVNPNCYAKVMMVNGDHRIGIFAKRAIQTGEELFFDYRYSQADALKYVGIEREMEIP

target: WT 5-mer EZH2 (PRC2 complex) (Homo sapiens, UniProt Q15910); assay: EZH2 WT 384-well biochemical assay (SPA, 3H-SAM); conditions: recombinant WT/mut EZH2 in the context of the PRC2 complex

Inhibition of the methyltransferase activity of EZH2 (in words), are EZH2 inhibitors:
Cc1cc(C)c(CN2CCCc3sc(N(C)[C@H]4CC[C@H](N5CC(OC6CC6)C5)CC4)c(C)c3C2=O)c(=O)[nH]1 [Example 35, 2-[{Trans-4-[3-(cyclopropyloxy)azetidin-1-yl]cyclohexyl}(methyl)amino]-5-[(4,6-dimethyl-2-oxo-1,2-dihydropyridin-3-yl)methyl]-3-methyl-5,6,7,8-tetrahydro-4H-thieno[3,2-c]azepin-4-one]
Cc1cc(C)c(CN2CCc3sc([C@H](C)[C@H]4CC[C@H](N(C)C)CC4)c(C)c3C2=O)c(=O)[nH]1 [Example 8, 2-[(1R)-1-[Trans-4-(dimethylamino)cyclohexyl]ethyl}-5-[(4,6-dimethyl-2-oxo-1,2-dihydropyridin-3-yl)methyl]-3-methyl-6,7-dihydrothieno[3,2-c]pyridin-4(5H)-one]
Cc1cc(C)c(CN2CCc3sc([C@H](C)[C@H]4CC[C@H](N5CCC5)CC4)c(C)c3C2=O)c(=O)[nH]1 [Example 15, 2-{(1R)-1-[Trans-4-(azetidin-1-yl)cyclohexyl]ethyl}-5-[(4,6-dimethyl-2-oxo-1,2-dihydropyridin-3-yl)methyl]-3-methyl-6,7-dihydrothieno[3,2-c]pyridin-4(5H)-one]
Cc1cc(C)c(CN2CCc3sc([C@H](C)[C@H]4CC[C@H](N5CC(n6cccn6)C5)CC4)c(C)c3C2=O)c(=O)[nH]1 [Example 12, 5-[(4,6-Dimethyl-2-oxo-1,2-dihydropyridin-3-yl)methyl]-3-methyl-2-[(1R)-{trans-4-[3-(1H-pyrazol-1-yl)azetidin-1-yl]cyclohexyl}ethyl)-6,7-dihydrothieno[3,2-c]pyridin-4(5H)-one]
CCN(c1sc2c(c1C)C(=O)N(Cc1c(C)cc(C)[nH]c1=O)CC2)[C@H]1CC[C@H](N(C)C2CC2)CC1 [Example 31, 2-[{Trans-4-[cyclopropyl(methyl)amino]cyclohexyl}(ethyl)amino]-5-[(4,6-dimethyl-2-oxo-1,2-dihydropyridin-3-yl)methyl]-3-methyl-6,7-dihydrothieno[3,2-c]pyridin-4(5H)-one]
Cc1cc(C)c(CN2CCc3sc([C@H](C)[C@H]4CC[C@H](N5CC(N6CCCC6)C5)CC4)c(C)c3C2=O)c(=O)[nH]1 [Example 5, 5-[(4,6-Dimethyl-2-oxo-1,2-dihydropyridin-3-yl)methyl]-3-methyl-2-[(1R)-1-{trans-4-[3-(pyrrolidin-1-yl)azetidin-1-yl]cyclohexyl}ethyl]-6,7-dihydrothieno[3,2-c]pyridin-4(5H)-one]
Cc1cc(C)c(CN2CCc3sc([C@H](C)[C@H]4CC[C@H](N5CC(OCC6CC6)C5)CC4)c(C)c3C2=O)c(=O)[nH]1 [Example 16, 2-[(1R)-1-{Trans-4-[3-(cyclopropylmethoxy)azetidin-1-yl]cyclohexyl}ethyl]-5-[(4,6-dimethyl-2-oxo-1,2-dihydropyridin-3-yl)methyl]-3-methyl-6,7-dihydrothieno[3,2-c]pyridin-4(5H)-one]
CCN(c1sc2c(c1C)C(=O)N(Cc1c(C)cc(C)[nH]c1=O)CC2)[C@H]1CC[C@@H](N(C)CCOC)CC1 [Example 30, 5-[(4,6-Dimethyl-2-oxo-1,2-dihydropyridin-3-yl)methyl]-2-(ethyl{cis-4-[(2-methoxyethyl)(methyl)amino]cyclohexyl}amino)-3-methyl-6,7-dihydrothieno[3,2-c]pyridin-4(5H)-one]
Cc1ccn(C2CN([C@H]3CC[C@H]([C@@H](C)c4sc5c(c4C)C(=O)N(Cc4c(C)cc(C)[nH]c4=O)CC5)CC3)C2)n1 [Example 2]
Cc1cc(C)c(CN2CCCc3sc([C@H](C)[C@H]4CC[C@H](N5CC(n6cccn6)C5)CC4)c(C)c3C2=O)c(=O)[nH]1 [Example 39, 5-[(4,6-Dimethyl-2-oxo-1H-pyridin-3-yl)methyl]-3-methyl-2-[(1R)-1-[4-(3-pyrazol-1-ylazetidin-1-yl)cyclohexyl]ethyl]-7,8-dihydro-6H-thieno[3,2-c]azepin-4-one]
CCN(c1sc2c(c1C)C(=O)N(Cc1c(C)cc(C)[nH]c1=O)CC2)[C@H]1CC[C@H](N2CC(OC)C2)CC1 [Example 22, 5-[(4,6-Dimethyl-2-oxo-1,2-dihydropyridin-3-yl)methyl]-2-{ethyl[trans-4-(3-methoxyazetidin-1-yl)cyclohexyl]amino}-3-methyl-6,7-dihydrothieno[3,2-c]pyridin-4(5H)-one]
CS(=O)(=O)O.Cc1cc(C)c(CN2CCc3sc([C@H](C)[C@H]4CC[C@H](N5CC(n6nccc6C)C5)CC4)c(C)c3C2=O)c(=O)[nH]1 [Example 41, 5-[(4,6-Dimethyl-2-oxo-1,2-dihydropyridin-3-yl)methyl]-3-methyl-2-[(1R)-1-{trans-4-[3-(5-methyl-1H-pyrazol-1-yl)azetidin-1-yl]cyclohexyl}ethyl]-6,7-dihydrothieno[3,2-c]pyridin-4(5H)-one methanesulfonate]
COCCOC1CN([C@H]2CC[C@@H]([C@@H](C)c3sc4c(c3C)C(=O)N(Cc3c(C)cc(C)[nH]c3=O)CC4)CC2)C1 (single isomer, unassigned) [Example 18]
COC1CN([C@H]2CC[C@H](N(C)c3sc4c(c3C)C(=O)N(Cc3c(C)cc(C)[nH]c3=O)CC4)CC2)C1 [Example 19, 5-[(4,6-Dimethyl-2-oxo-1,2-dihydropyridin-3-yl)methyl]-2-{[trans-4-(3-methoxyazetidin-1-yl)cyclohexyl](methyl)amino}-3-methyl-6,7-dihydrothieno[3,2-c]pyridin-4(5H)-one]
CS(=O)(=O)O.Cc1ccn(C2CN([C@H]3CC[C@H]([C@@H](C)c4sc5c(c4C)C(=O)N(Cc4c(C)cc(C)[nH]c4=O)CC5)CC3)C2)n1 [Example 42, 5-[(4,6-Dimethyl-2-oxo-1,2-dihydropyridin-3-yl)methyl]-3-methyl-2-[(1R)-1-{trans-4-[3-(3-methyl-1H-pyrazol-1-yl)azetidin-1-yl]cyclohexyl}ethyl]-6,7-dihydrothieno[3,2-c]pyridin-4(5H)-one methanesulfonate]
COCC1CN([C@H]2CC[C@H]([C@@H](C)c3sc4c(c3C)C(=O)N(Cc3c(C)cc(C)[nH]c3=O)CC4)CC2)C1 [Example 10, 5-[(4,6-Dimethyl-2-oxo 1,2-dihydropyridin-3-yl)methyl]-2-[(1R)-1-{trans-4-[3-(methoxymethyl)azetidin-1-yl]cyclohexyl}ethyl]-3-methyl-6,7-dihydrothieno[3,2-c]pyridin-4(5H)-one]
Cc1cc(C)c(CN2CCc3sc([C@H](C)[C@H]4CC[C@H](N5CC(OC6CC6)C5)CC4)c(C)c3C2=O)c(=O)[nH]1 [Example 9, 2-[(1R)-1-[4-[3-(cyclopropoxy)azetidin-1-yl]cyclohexyl]ethyl]-5-[(4,6-dimethyl-2-oxo-1H-pyridin-3-yl)methyl]-3-methyl-6,7-dihydrothieno[3,2-c]pyridin-4-one]
COCCOC1CN([C@H]2CC[C@H]([C@@H](C)c3sc4c(c3C)C(=O)N(Cc3c(C)cc(C)[nH]c3=O)CC4)CC2)C1 (single isomer, unassigned) [Example 17]
CCOC1CN([C@H]2CC[C@H](N(CC)c3sc4c(c3C)C(=O)N(Cc3c(C)cc(C)[nH]c3=O)CC4)CC2)C1 [Example 32, 5-[(4,6-Dimethyl-2-oxo-1,2-dihydropyridin-3-yl)methyl]-2-[trans-4-(3-ethoxyazetidin-1-yl)cyclohexyl](ethyl)amino-3-methyl-6,7-dihydrothieno[3,2-c]pyridin-4(5H)-one]
Cc1cc(C)c(CN2CCc3sc([C@H](C)[C@H]4CC[C@H](N5CC(n6nccc6C)C5)CC4)c(C)c3C2=O)c(=O)[nH]1 [Example 3, 5-[(4,6-Dimethyl-2-oxo-1H-pyridin-3-yl)methyl]-3-methyl-2-[(1R)-1-[4-[3-(5-methylpyrazol-1-yl)azetidin-1-yl]cyclohexyl]ethyl]-6,7-dihydrothieno[3,2-c]pyridin-4-one]

same assay, conditions: recombinant WT/mut EZH2 in the context of the PRC2 complex; listed as example 20

Inhibition of the methyltransferase activity of EZH2 (in words), are EZH2 inhibitors:
Cc1cc(C)c(CN2CCc3sc(N(C)[C@H]4CC[C@H](N5CC(n6cccn6)C5)CC4)c(C)c3C2=O)c(=O)[nH]1 [Example 20, 5-[(4,6-Dimethyl-2-oxo-1,2-dihydropyridin-3-yl)methyl]-3-methyl-2-(methyl{trans-4-[3-(1H-pyrazol-1-yl)azetidin-1-yl]cyclohexyl}amino)-6,7-dihydrothieno[3,2-c]pyridin-4(5H)-one]
